According to patent publication US8362256B2, “Salts of N-[4-(1-cyanocyclopentyl)phenyl]-2-(4-pyridylmethyl)amino-3-pyridinecarboxamide” (Jiangsu Hengrui Medicine Co. Ltd., priority 2008, dated 2013):
At least one compound was matched to its structure with a doubt left.

Test: Solubility
Format: physicochemical
Conditions: each cell also says 'slightly soluble'
In the case of `N#CC1(c2ccc(NC(=O)c3cccnc3NCc3ccncc3)cc2)CCCC1.O=C(O)/C=C\C(=O)O` [Maleate of compound A], the Solubility in ethanol is reported as 0.1 g/25 mL slightly soluble.
`Cl.N#CC1(c2ccc(NC(=O)c3cccnc3NCc3ccncc3)cc2)CCCC1` [Hydrochloride of compound A] showed a Solubility in ethanol of 0.1 g/40 mL slightly soluble.
With `N#CC1(c2ccc(NC(=O)c3cccnc3NCc3ccncc3)cc2)CCCC1.O=P(O)(O)O` [Phosphate of compound A] the Solubility in ethanol was 0.1 g/49 mL slightly soluble.
